# Assay results: PubChem BioAssay AID540335 (Broad Institute, 2011)
# Among all 1,300 compounds or so, about 270 (21%) were called active.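 Rule for the calls: active = dose-dependent rise or fall in viability, either side of zero, with half-maximal concentration at or below a set limit; inconclusive = flat curve at 30 to 70% viability loss, or poor fit; inactive = flat within 30% either way, or potency beyond limit.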 This is one part of the list. Potency and affinity values are given separately.
# Assay: A375 melanoma cell viability reduction, dose response, counter-screen for MITF modulator project, cherry-pick samples, set 2 (AID 540335);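 note: A375 human melanoma cells which do not depend on MITF; 0% = median of neutral control wells and 100% = double that signal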
# Settings: CellTiter-Glo ATP luminescence, 24 h; at 35 µM (top of the series)
row,SMILES,"activity change, negative = decreased viability"
1,Cc1cc(C(=O)Nc2ccccc2)nn1C(C)(C)C,inactive: 3.82%
2,CC[n+]1c(-c2ccccc2)c2cc(N)ccc2c2ccc(N)cc21,inactive: -32.4%
3,CN1C(=O)/C(=C/c2cccn2-c2ccc3ccccc3c2)C(=O)NC1=S,inactive: 7.08%
4,O=C1NC(=O)N(Cc2ccccc2Cl)C(=O)/C1=C/c1cccs1,inactive: -13.7%
5,O=C1NC(=O)N(Cc2ccc(F)cc2)C(=O)/C1=C\C=C\c1ccco1,inactive: 28.1%
6,CC[n+]1c(/C=C/N(C)c2ccccc2)sc2ccc(Cl)cc21,inactive: -15.9%
7,S=C=Nc1cccc(C2(N3CCCCC3)CCCCC2)c1,inactive: -30.9%
8,Cc1ccc(N2C(=O)NC(=O)/C(=C\C=C\c3ccco3)C2=O)cc1,inactive: 18.4%
9,O=c1[nH]c(=S)[nH]c(O)c1N=Nc1ccc(S(=O)(=O)N2CCc3ccccc32)cc1,inactive: 5.93%
10,COc1ccc(-c2cc(-c3ccccc3)[n+](C)c(-c3ccccc3)c2)cc1,inactive: -9.24%
11,Cc1cc(C(=O)Nc2ccc3c(c2)OCCO3)nn1C(C)(C)C,inactive: -4.89%
12,COc1cc2c(cc1/C=C/[N+](=O)[O-])OCO2,inactive: -38.5%
13,O=c1c2ccccc2nc(/C=C/c2ccc([N+](=O)[O-])o2)n1-c1ccc(O)cc1,inactive: -7.41%
14,CCCCCn1c(=O)c(C(=O)Nc2cnccn2)c(O)c2ccccc21,inactive: -3.94%
15,CCOC(=O)c1c(-n2c(C)cc(C=C3C(=O)NC(=S)NC3=O)c2C)sc2c1CCCC2,inactive: 9.13%
16,C=CCN1C(=O)NC(=O)/C(=C/C=C/c2ccccc2)C1=O,inactive: 45.4%
17,Cc1cc(C)cc(N2C(=O)NC(=O)/C(=C\c3cccn3-c3ccccc3)C2=O)c1,inactive: -17.3%
18,O=C1NC(=O)C(=Cc2ccc(-c3ccc(Cl)cc3)o2)C(=O)N1,inactive: 6.73%

# A run of entries from the list above, as a working copy:
row,SMILES,"activity change, negative = decreased viability"
6,CC[n+]1c(/C=C/N(C)c2ccccc2)sc2ccc(Cl)cc21,inactive: -15.9%
7,S=C=Nc1cccc(C2(N3CCCCC3)CCCCC2)c1,inactive: -30.9%
8,Cc1ccc(N2C(=O)NC(=O)/C(=C\C=C\c3ccco3)C2=O)cc1,inactive: 18.4%
9,O=c1[nH]c(=S)[nH]c(O)c1N=Nc1ccc(S(=O)(=O)N2CCc3ccccc32)cc1,inactive: 5.93%
10,COc1ccc(-c2cc(-c3ccccc3)[n+](C)c(-c3ccccc3)c2)cc1,inactive: -9.24%
11,Cc1cc(C(=O)Nc2ccc3c(c2)OCCO3)nn1C(C)(C)C,inactive: -4.89%

# (cont.)

row,SMILES,"activity change, negative = decreased viability"
1,CCOc1ccc(-c2cc(C)[n+](CCO)c(-c3ccc(OCC)cc3)c2)cc1,inactive: 5.2%
2,O=C1NC(=O)C(=Cc2ccc(-c3cc(Cl)ccc3[N+](=O)[O-])o2)C(=O)N1,inactive: 10.4%
3,C=CCN1C(=O)/C(=C/c2cc(C)n(-c3cccnc3)c2C)C(=O)NC1=S,inactive: -15.1%
4,CC(C)n1c(O)c(C2c3cc(Cl)ccc3Oc3[nH]c(=O)n(C(C)C)c(=O)c32)c(=O)[nH]c1=O (stereo not given),inactive: 40.4%
5,CN(C)c1ccc(/C=C2/C(=N\O)C3CCN2CC3)cc1,inactive: 6.95%
6,O=C1NC(=O)N(Cc2ccccc2)C(=O)/C1=C/C=C/c1ccco1,inactive: 57.1%
7,COc1ccc(Oc2cc(NC(=O)c3nn(C)cc3[N+](=O)[O-])cc([N+](=O)[O-])c2)cc1,inactive: 9.82%
8,O=C1NC(=S)NC(=O)C1=Cc1cccn1-c1ccc(O)cc1,inactive: -17.4%
9,Cc1ccc(N2C(=O)NC(=O)/C(=C/C=C/c3ccco3)C2=O)cc1,inactive: 69%
10,CCCCCCn1c(=O)c(C(=O)Nc2cnccn2)c(O)c2ccccc21,inactive: -13.2%
11,Cc1ccc(C(O)(c2ccc(C)c(C)c2)C2CN3CCC2CC3)cc1C (stereo not given),inactive: -75.9%
12,Cc1cccc(N2C(=O)NC(=O)/C(=C\c3cccn3-c3ccc(Cl)cc3)C2=O)c1,inactive: -12.1%
13,CC(C)c1oc(=O)cc2c1[C@@H](O)[C@H]1OC(=O)[C@@]3(C)C[C@@H](O)[C@@H](O)[C@@]2(C)C13 (stereo not given in full),inactive: -31.9%
14,C/C(=C\c1ccc(N(C)C)cc1)[N+](=O)[O-],inactive: 3.02%
15,CC(C)N1C(=O)/C(=C/C=C/c2ccco2)C(=O)N(Cc2ccco2)C1=O,inactive: -4.9%
16,Cc1ccc(-c2cc(-c3ccc(C)cc3)[n+](C)o2)cc1,inactive: -12%
17,NC(Cc1nc2ccccc2[nH]1)c1ccc(Cl)cc1 (stereo not given),inactive: 4.21%
